In the supplement of paper PMC12823440, “Inhibitors supercharge kinase turnover through native proteolytic circuits” (Nature, 2025):
Where a name gives a salt, the structure may show the parent alone. Some of the results follow. Hit calls seldom repeat between salt and free forms of one compound.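 Kinases, fused to nanoluciferase, were expressed in K562 cells; luminescence was measured every 4 h from 2 to 18 h as percent of control (DMSO = 100%, positive control = 0%). A time point is decreased if signal falls significantly (2 sigma). Hits were called by the authors by a rule that is not shown; the count of time points alone does not decide it.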

Amino acid sequences for entries named in this document (tags omitted). A change or cut given only in a name is not applied to a line headed by its entry.
UniProt Q06187: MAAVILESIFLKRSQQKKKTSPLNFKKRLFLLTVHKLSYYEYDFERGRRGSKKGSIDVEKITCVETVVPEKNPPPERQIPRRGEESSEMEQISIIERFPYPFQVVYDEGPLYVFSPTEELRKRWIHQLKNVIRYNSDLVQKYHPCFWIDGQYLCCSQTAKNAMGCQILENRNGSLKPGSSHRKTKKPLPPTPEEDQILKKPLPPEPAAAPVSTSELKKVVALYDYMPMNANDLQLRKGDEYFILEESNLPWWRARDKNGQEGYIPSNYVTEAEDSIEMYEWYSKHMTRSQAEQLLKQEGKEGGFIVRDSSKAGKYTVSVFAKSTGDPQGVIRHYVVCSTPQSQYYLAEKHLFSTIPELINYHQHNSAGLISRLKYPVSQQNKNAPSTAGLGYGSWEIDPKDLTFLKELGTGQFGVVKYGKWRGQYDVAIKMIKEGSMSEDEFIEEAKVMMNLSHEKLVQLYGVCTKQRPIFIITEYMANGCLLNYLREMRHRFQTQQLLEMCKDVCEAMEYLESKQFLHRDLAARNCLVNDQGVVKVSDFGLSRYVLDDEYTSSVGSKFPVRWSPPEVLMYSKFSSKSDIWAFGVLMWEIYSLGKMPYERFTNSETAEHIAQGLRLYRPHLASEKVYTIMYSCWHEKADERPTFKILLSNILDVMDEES
UniProt Q9UQM7, whole entry: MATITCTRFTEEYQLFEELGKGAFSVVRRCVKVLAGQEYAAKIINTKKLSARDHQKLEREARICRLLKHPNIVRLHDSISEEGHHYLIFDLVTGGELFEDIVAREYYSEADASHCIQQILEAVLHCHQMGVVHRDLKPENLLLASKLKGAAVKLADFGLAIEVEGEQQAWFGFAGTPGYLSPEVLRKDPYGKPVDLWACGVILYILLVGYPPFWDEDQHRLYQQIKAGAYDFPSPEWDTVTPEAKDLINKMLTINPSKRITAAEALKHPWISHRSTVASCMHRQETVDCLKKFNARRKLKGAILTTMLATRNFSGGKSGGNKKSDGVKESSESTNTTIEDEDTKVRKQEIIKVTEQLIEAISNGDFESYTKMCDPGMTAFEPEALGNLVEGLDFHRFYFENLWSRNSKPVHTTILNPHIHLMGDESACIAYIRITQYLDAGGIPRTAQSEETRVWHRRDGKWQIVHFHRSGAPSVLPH
UniProt Q13555: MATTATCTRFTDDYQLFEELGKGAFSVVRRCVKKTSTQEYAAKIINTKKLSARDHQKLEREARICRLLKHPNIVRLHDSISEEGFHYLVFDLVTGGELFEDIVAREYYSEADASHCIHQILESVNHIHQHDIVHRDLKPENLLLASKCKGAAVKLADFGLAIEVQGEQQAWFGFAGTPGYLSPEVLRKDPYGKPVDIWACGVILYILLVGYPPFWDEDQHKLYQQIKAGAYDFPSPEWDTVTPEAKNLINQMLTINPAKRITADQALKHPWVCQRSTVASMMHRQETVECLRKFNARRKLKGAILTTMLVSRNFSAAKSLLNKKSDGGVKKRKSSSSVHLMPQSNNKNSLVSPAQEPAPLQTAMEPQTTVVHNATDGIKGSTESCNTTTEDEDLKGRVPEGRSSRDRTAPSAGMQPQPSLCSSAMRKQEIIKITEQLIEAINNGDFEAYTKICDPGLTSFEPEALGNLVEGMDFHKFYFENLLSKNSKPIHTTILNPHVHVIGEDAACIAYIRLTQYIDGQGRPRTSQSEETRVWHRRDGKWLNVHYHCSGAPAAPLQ
UniProt Q15131: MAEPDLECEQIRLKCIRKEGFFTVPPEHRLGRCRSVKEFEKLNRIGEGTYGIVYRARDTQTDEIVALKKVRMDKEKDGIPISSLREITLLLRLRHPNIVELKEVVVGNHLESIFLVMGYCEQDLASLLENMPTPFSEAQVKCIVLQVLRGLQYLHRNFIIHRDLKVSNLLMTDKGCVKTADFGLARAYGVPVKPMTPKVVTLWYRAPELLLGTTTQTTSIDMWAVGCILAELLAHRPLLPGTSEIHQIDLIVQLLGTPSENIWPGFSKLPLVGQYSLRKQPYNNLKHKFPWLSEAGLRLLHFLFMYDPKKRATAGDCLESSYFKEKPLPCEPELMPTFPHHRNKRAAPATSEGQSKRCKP
UniProt P11802: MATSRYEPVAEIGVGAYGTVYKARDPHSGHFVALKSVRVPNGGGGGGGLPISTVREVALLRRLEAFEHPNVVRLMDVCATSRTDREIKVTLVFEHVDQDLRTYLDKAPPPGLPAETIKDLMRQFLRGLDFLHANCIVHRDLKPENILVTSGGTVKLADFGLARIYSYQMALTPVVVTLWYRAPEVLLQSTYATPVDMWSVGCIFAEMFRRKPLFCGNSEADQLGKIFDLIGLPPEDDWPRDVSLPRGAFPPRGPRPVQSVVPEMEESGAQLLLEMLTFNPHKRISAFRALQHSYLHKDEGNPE
UniProt Q00535, whole entry, looked up: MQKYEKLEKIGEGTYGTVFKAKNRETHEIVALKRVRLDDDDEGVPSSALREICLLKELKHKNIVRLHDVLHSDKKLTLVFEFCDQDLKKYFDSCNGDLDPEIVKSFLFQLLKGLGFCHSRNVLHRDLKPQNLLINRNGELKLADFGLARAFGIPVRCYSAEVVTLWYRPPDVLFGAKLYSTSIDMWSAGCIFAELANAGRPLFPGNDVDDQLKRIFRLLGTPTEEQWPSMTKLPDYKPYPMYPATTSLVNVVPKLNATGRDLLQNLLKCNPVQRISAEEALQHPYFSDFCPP
UniProt P50613: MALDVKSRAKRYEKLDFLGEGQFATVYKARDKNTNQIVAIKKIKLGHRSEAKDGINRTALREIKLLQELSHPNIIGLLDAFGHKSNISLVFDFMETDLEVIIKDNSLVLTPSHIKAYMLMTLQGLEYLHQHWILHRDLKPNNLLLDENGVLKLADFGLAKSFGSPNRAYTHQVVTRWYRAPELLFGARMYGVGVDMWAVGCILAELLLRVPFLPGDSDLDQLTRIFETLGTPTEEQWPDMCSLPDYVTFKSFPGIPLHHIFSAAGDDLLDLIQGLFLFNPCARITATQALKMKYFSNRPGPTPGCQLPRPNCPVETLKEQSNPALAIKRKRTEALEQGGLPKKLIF
UniProt P50750, whole entry: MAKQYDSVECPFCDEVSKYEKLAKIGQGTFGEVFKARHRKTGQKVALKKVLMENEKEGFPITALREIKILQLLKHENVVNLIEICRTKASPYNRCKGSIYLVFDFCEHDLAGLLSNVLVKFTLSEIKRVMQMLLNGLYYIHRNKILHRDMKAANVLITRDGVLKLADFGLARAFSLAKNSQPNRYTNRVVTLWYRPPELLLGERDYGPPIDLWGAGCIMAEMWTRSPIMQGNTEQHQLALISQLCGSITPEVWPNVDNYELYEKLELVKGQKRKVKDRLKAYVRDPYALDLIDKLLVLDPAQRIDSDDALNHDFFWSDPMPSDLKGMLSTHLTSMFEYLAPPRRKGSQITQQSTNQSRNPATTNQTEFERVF
UniProt O96017, whole entry: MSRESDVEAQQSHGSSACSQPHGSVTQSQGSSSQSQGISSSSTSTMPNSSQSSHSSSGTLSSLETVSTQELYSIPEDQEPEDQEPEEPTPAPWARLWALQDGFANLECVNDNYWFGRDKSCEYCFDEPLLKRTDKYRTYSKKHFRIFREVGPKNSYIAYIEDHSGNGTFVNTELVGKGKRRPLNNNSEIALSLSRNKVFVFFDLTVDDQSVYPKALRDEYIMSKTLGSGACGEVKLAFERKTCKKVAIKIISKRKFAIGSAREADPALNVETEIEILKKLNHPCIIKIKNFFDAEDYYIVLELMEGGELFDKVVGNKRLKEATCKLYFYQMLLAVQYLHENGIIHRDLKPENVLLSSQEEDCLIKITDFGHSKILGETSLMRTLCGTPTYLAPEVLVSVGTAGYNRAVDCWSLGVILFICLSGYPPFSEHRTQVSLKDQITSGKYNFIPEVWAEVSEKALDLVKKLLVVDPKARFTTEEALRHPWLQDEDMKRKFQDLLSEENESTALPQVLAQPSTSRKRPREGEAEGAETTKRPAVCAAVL
UniProt P07333, whole entry: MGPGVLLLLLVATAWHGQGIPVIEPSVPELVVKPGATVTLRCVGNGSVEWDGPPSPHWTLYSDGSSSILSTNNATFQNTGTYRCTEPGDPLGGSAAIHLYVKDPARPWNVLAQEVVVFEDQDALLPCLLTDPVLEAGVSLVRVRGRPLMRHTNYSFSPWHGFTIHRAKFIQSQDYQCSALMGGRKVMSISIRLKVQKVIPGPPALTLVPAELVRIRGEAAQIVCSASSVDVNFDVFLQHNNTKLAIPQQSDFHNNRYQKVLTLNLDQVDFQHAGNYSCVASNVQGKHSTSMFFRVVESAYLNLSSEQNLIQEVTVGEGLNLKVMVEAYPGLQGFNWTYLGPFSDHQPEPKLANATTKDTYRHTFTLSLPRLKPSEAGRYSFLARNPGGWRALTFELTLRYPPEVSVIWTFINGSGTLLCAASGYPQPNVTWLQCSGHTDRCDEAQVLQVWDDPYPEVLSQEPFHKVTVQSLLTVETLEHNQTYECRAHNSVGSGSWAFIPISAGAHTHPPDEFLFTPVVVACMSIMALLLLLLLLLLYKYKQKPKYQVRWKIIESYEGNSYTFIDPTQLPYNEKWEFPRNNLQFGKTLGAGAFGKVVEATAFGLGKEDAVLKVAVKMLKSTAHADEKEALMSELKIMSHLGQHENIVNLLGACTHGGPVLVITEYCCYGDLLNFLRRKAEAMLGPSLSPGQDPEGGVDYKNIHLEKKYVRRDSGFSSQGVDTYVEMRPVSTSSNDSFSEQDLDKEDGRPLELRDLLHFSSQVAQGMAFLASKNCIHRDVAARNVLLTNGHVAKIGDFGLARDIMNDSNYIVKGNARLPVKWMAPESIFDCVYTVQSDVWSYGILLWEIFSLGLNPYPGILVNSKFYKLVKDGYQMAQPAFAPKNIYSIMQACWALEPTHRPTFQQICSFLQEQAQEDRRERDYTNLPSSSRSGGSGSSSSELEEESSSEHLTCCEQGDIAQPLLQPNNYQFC
UniProt P48729: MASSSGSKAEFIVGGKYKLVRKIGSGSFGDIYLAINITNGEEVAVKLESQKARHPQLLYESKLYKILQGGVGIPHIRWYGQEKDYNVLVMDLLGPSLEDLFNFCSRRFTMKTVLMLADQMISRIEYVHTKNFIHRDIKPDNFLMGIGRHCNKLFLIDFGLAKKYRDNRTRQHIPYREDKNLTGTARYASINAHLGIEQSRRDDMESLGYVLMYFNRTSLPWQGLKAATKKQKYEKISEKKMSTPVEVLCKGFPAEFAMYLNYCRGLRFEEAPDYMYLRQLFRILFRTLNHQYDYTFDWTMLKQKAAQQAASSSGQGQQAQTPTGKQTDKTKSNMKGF
UniProt P48730: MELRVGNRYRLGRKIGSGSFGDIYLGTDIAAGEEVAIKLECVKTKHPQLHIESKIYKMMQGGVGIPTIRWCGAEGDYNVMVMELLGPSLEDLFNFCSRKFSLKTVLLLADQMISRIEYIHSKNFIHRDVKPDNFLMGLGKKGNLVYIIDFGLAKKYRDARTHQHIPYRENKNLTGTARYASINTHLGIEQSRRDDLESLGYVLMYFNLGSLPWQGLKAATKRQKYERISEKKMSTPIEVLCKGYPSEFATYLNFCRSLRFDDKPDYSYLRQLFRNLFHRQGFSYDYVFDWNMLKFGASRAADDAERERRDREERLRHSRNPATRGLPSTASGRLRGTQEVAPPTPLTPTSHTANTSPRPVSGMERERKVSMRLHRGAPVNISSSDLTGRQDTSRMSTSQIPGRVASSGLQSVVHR
UniProt Q08345: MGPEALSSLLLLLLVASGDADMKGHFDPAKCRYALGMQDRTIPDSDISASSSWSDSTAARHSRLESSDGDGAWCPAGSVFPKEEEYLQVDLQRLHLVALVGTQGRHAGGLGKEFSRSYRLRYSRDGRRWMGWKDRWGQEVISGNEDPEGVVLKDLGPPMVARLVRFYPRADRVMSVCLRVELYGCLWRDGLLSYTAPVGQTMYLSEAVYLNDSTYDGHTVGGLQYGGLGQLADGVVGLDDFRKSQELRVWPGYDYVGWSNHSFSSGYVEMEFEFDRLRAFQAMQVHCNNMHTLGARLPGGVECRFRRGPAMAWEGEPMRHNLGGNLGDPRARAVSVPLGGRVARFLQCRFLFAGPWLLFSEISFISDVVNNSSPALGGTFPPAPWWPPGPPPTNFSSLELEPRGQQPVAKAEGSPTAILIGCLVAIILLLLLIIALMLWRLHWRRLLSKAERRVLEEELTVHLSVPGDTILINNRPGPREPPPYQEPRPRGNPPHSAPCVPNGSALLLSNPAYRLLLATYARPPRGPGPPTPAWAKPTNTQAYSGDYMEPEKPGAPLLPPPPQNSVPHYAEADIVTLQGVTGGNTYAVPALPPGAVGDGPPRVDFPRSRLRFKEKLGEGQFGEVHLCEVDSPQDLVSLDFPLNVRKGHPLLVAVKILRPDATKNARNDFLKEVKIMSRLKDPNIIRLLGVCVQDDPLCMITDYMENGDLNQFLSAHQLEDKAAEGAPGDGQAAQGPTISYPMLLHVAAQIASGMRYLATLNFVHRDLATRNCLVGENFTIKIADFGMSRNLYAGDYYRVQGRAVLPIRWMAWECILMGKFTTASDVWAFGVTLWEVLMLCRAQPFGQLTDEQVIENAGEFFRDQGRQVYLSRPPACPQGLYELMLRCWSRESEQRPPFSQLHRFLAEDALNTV

How the values were obtained:
Assay in all cases: kinase-Nluc reporter destabilization hit call (1 = scored as downregulated) (binary); higher = compound decreases kinase abundance
Conditions in all cases: K562; 2-18 h
BRAF_V600E = system: BRAF_V600E
BTK = BTK (UniProt Q06187)
CAMK2A = CAMK2A (UniProt Q9UQM7)
CAMK2G = CAMK2G (UniProt Q13555)
CDK10 = CDK10 (UniProt Q15131)
CDK2 = CDK2 (UniProt P24941)
CDK3 = CDK3 (UniProt Q00526)
CDK4 = CDK4 (UniProt P11802)
CDK5 = CDK5 (UniProt Q00535)
CDK6 = CDK6 (UniProt Q00534)
CDK7 = CDK7 (UniProt P50613)
CDK9 = CDK9 (UniProt P50750)
CHEK2 = CHEK2 (UniProt O96017)
CSF1R = CSF1R (UniProt P07333)
CSK = CSK (UniProt P41240)
CSNK1A1 = CSNK1A1 (UniProt P48729)
CSNK1D = CSNK1D (UniProt P48730)
DDR1 = DDR1 (UniProt Q08345)
DYRK1B = DYRK1B (UniProt Q9Y463)
DYRK2 = DYRK2 (UniProt Q92630)

Compound	kinase-Nluc reporter destabilization hit call (BRAF_V600E)	kinase-Nluc reporter destabilization hit call (BTK)	kinase-Nluc reporter destabilization hit call (CAMK2A)	kinase-Nluc reporter destabilization hit call (CAMK2G)	kinase-Nluc reporter destabilization hit call (CDK10)	kinase-Nluc reporter destabilization hit call (CDK2)	kinase-Nluc reporter destabilization hit call (CDK3)	kinase-Nluc reporter destabilization hit call (CDK4)	kinase-Nluc reporter destabilization hit call (CDK5)	kinase-Nluc reporter destabilization hit call (CDK6)	kinase-Nluc reporter destabilization hit call (CDK7)	kinase-Nluc reporter destabilization hit call (CDK9)	kinase-Nluc reporter destabilization hit call (CHEK2)	kinase-Nluc reporter destabilization hit call (CSF1R)	kinase-Nluc reporter destabilization hit call (CSK)	kinase-Nluc reporter destabilization hit call (CSNK1A1)	kinase-Nluc reporter destabilization hit call (CSNK1D)	kinase-Nluc reporter destabilization hit call (DDR1)	kinase-Nluc reporter destabilization hit call (DYRK1B)	kinase-Nluc reporter destabilization hit call (DYRK2)
O=C(Nc1nc2ccccc2[nH]1)c1cccc(-n2cccc2)c1 (10 µM)	inactive: 0	inactive: 0	inactive: 0	inactive: 0	inactive: 0	inactive: 0	inactive: 0	inactive: 0	inactive: 0	inactive: 0	inactive: 0	inactive: 0	inactive: 0	inactive: 0	inactive: 0	inactive: 0	inactive: 0	inactive: 0	inactive: 0	inactive: 0
COc1ccc(C(=C2C(=O)Nc3ccccc32)c2ccc(OC)cc2)cc1 (10 µM)	inactive: 0	inactive: 0	inactive: 0	inactive: 0	inactive: 0	inactive: 0	inactive: 0	inactive: 0	inactive: 0	inactive: 0	inactive: 0	inactive: 0	inactive: 0	inactive: 0	inactive: 0	inactive: 0	inactive: 0	inactive: 0	inactive: 0	inactive: 0
N#CC(c1ccnc(NCCc2cccnc2)n1)c1nc2ccccc2s1 (stereo not given) (10 µM)	inactive: 0	inactive: 0	inactive: 0	inactive: 0	inactive: 0	inactive: 0	inactive: 0	inactive: 0	inactive: 0	inactive: 0	inactive: 0	inactive: 0	inactive: 0	inactive: 0	inactive: 0	inactive: 0	inactive: 0	inactive: 0	inactive: 0	inactive: 0
CCn1c(=O)c(-c2ccc(-c3cncc(C)n3)cc2Cl)cc2cnc(NCCC3CCN(C)CC3)nc21 (10 µM)	inactive: 0	inactive: 0	inactive: 0	inactive: 0	inactive: 0	inactive: 0	inactive: 0	inactive: 0	inactive: 0	inactive: 0	inactive: 0	inactive: 0	inactive: 0	inactive: 0	inactive: 0	inactive: 0	inactive: 0	inactive: 0	inactive: 0	inactive: 0
CN(C)CCN(Cc1ccc(Cl)cc1)c1ccccn1 [Chloropyramine hydrochloride] (10 µM)	inactive: 0	inactive: 0	inactive: 0	inactive: 0	inactive: 0	inactive: 0	inactive: 0	inactive: 0	inactive: 0	inactive: 0	inactive: 0	inactive: 0	inactive: 0	inactive: 0	inactive: 0	inactive: 0	inactive: 0	inactive: 0	inactive: 0	inactive: 0
NCCN1CCN(C/C=C/C(=O)N2CCC[C@@H](n3nc(-c4ccc(Oc5ccccc5)cc4)c4c(N)ncnc43)C2)CC1 [Ibrutinib-MPEA] (10 µM)	inactive: 0	inactive: 0	inactive: 0	inactive: 0	inactive: 0	inactive: 0	inactive: 0	inactive: 0	inactive: 0	inactive: 0	inactive: 0	inactive: 0	inactive: 0	inactive: 0	inactive: 0	inactive: 0	inactive: 0	inactive: 0	inactive: 0	inactive: 0
Cc1cc([C@H](C)Nc2ccccc2)c2oc(N3CCOCC3)cc(=O)c2c1 (10 µM)	inactive: 0	inactive: 0	inactive: 0	inactive: 0	inactive: 0	inactive: 0	inactive: 0	inactive: 0	inactive: 0	inactive: 0	inactive: 0	inactive: 0	inactive: 0	inactive: 0	inactive: 0	inactive: 0	inactive: 0	inactive: 0	inactive: 0	inactive: 0
Cc1cc(Nc2cc(Cl)nc(Oc3ccc([N+](=O)[O-])cc3)n2)n[nH]1 [Autophinib] (2.5 µM)	inactive: 0	inactive: 0	inactive: 0	inactive: 0	inactive: 0	inactive: 0	inactive: 0	inactive: 0	inactive: 0	inactive: 0	inactive: 0	inactive: 0	inactive: 0	inactive: 0	inactive: 0	inactive: 0	inactive: 0	inactive: 0	inactive: 0	inactive: 0
C=C1C(=O)O[C@@H]2C[C@@]3(C)CCC[C@H](C)C3=C[C@H]12 [Alantolactone] (10 µM)	inactive: 0	inactive: 0	inactive: 0	inactive: 0	inactive: 0	inactive: 0	inactive: 0	inactive: 0	inactive: 0	inactive: 0	inactive: 0	inactive: 0	inactive: 0	inactive: 0	inactive: 0	inactive: 0	inactive: 0	active: 1	inactive: 0	inactive: 0

A few values from the results shown:
kinase-Nluc reporter destabilization hit call (CSF1R), `NCCN1CCN(C/C=C/C(=O)N2CCC[C@@H](n3nc(-c4ccc(Oc5ccccc5)cc4)c4c(N)ncnc43)C2)CC1` [Ibrutinib-MPEA] (10 µM) reads inactive: 0
kinase-Nluc reporter destabilization hit call (CDK3), `Cc1cc(Nc2cc(Cl)nc(Oc3ccc([N+](=O)[O-])cc3)n2)n[nH]1` [Autophinib] (2.5 µM) reads inactive: 0
